This test concerns the target β-catenin prey fusion of plasmid pGAD424-βctn (UniProt P35222). Nature of the test: yeast two-hybrid, L40 strain, CPRG quantification (FIG. 7B).

Sequences of proteins named here, by UniProt entry; tags and fusion partners are left off. A change or cut given only in a name is not applied to a line headed by its entry. Residues count along the entry.
UniProt P35222, residues 14-172: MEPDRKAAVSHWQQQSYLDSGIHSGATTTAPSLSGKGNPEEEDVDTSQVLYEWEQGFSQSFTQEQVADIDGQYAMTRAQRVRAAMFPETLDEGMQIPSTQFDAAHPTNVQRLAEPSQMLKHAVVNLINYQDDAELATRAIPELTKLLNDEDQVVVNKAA
UniProt P0A7C2: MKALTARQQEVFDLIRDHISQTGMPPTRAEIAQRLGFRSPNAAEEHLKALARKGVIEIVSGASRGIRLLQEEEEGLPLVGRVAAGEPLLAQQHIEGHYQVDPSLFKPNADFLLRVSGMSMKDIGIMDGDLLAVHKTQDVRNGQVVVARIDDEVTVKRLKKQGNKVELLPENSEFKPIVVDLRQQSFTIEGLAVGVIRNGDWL

Experimental findings from patent publication US20030165506A1 are described below.

No constants are given. Whether binding was seen depends on the method and setting. Some entries that bind do so weakly or less than the wild type.

On to “human αE-catenin fused to the LexA DNA binding domain, bait plasmid pLexMG-αECTN (from UniProt P0A7C2 1-202; P35221 2-906)”, for which the binding result is listed as “binds”.
